Values quoted from earlier work in patent US6340703B1, “Treatment or prevention of osteoporosis” (Novogen, Inc., priority 1997, dated 2002).
At least one structure is not confirmed: it was looked up by name or label, or the drawing left a doubt.

Test system: estrogen receptors
Settings: relative to 17p-estradiol 100; cited from earlier work

For `C[C@]12CC[C@@H]3c4ccc(O)cc4CC[C@H]3[C@@H]1CC[C@@H]2O` [17p-estradiol, reference compound], the relative estrogenicity is listed as 100.
